Values of other authors, collected in US20170226483A1, “Methods and Vectors to Produce Vector Free Induced Pluripotent Stem Cells” (Lonza Walkersville, Inc., priority 2016, published 2017).
For at least one compound, name, drawing or mass did not settle the structure.

Legend:
hPSCs = conditions: cited from earlier work
[1] = system: PI3K-AKT intracellular signal; conditions: cited from earlier work

SMILES: C[C@H]1c2cccc(O)c2C(=O)C2=C(O)[C@]3(O)C(=O)C(C(N)=O)=C(O)[C@@H](N(C)C)[C@@H]3[C@@H](O)[C@@H]21 [doxycycline]
- hPSCs survival and self-renewal (hPSCs): dramatic effects
- PI3K-AKT intracellular signal [1]: direct activation
